Survivor count and T/C data for 23 compounds are collected here from PubChem BioAssay AID248 (DTP/NCI, 2004).

The test system of this assay is L1210 leukemia ip in BDF1 mice, survival T/C. The experiment in a line: NCI In Vivo Anticancer Drug Screen. Data for tumor model L1210 Leukemia (intraperitoneal) in B6D2F1 (BDF1) mice. To be noted: T/C endpoint: mean survival time, higher T/C = longer survival.
Where [1] appears, read: dose: 100.0 mg/kg/injection, schedule: Q04DX003 (ip), vehicle: saline with Tween-80.
[2] abbreviates: dose: 200.0 mg/kg/injection, schedule: Q04DX003 (ip), vehicle: saline with Tween-80.
The mark [3] stands for this setting: dose: 400.0 mg/kg/injection, schedule: Q04DX003 (ip), vehicle: saline with Tween-80.
Where [4] appears, read: dose: 150.0 mg/kg/injection, schedule: Q01DX001 (ip), vehicle: saline.
Where [5] appears, read: dose: 300.0 mg/kg/injection, schedule: Q01DX001 (ip), vehicle: saline.
[6] abbreviates: dose: 100.0 mg/kg/injection, schedule: Q01DX009 (ip), vehicle: saline.
Setting [7] is: dose: 200.0 mg/kg/injection, schedule: Q01DX009 (ip), vehicle: saline.
The mark [8] stands for this setting: dose: 100.0 mg/kg/injection, schedule: Q04DX003 (ip), vehicle: Klucel (hydroxypropylcellulose) (HPC).
[9] abbreviates: dose: 200.0 mg/kg/injection, schedule: Q04DX003 (ip), vehicle: Klucel (hydroxypropylcellulose) (HPC).
The mark [10] stands for this setting: dose: 400.0 mg/kg/injection, schedule: Q04DX003 (ip), vehicle: Klucel (hydroxypropylcellulose) (HPC).
Setting [11] is: dose: 400.0 mg/kg/injection, schedule: Q01DX001 (ip), vehicle: saline.
[12] abbreviates: dose: 200.0 mg/kg/injection, schedule: Q01DX009 (ip), vehicle: acetone.
Where [13] appears, read: dose: 100.0 mg/kg/injection, schedule: Q01DX001 (ip), vehicle: saline.
[14] abbreviates: dose: 100.0 mg/kg/injection, schedule: Q01DX009 (ip), vehicle: carboxymethylcellulose (CMC).

Each structure is given as a SMILES string. The list shows only some results of the screen, not a fair sample: it is rich in T/C values a quarter to a half above the control, in often repeated tests (any T/C) and in doses without a T/C. Other doses and runs of a compound stand elsewhere. T/C gives the treated animals as a percentage of the vehicle group. Some doses have a count of surviving animals in place of a T/C: the source files T/C as zero there, which appears to mark a toxic dose or a test without result, not a measured value. Some survivor counts are full or nearly so, which does not show that the dose was tolerated: the source hardly ever lists a survival T/C far under the control, and the zero likely stands for such cases as well. Counts of survivors are from the toxicity check (mostly the fifth day) where no day follows; animals may have died later. Schedules are NCI's codes, read here as Q, the interval in days (D) or hours (H), X, the number of doses. For survival time, this PubChem deposit counts one and a half times the control or more as active, and values a quarter to a half above the control carry no call in these data; other NCI protocols may use other cut-offs. Some T/C values are followed by the survivors on the day toxicity was checked, most often the fifth; without a count, all were alive then. Some doses were run more than once; the values are given in rising order.

In the case of `O=C1C=CC(=O)N1c1ccc(Cl)cc1Br`, the survivor count is recorded as 0 of 6 under setting [1], 0 of 6 under setting [2] and 0 of 6 under setting [3].

For `CC(C)(N)CNc1ccccc1`, the survivor count runs as follows: under setting [2], 0 of 6; under setting [3], 0 of 6.

`CCCCCCCCCCCCCCC[n+]1ccc(C#N)cc1`: the survivor count by setting is: (dose: 20.0 mg/kg/injection, schedule: Q01DX009 (ip), vehicle: acetone) 4 of 6; (dose: 75.0 mg/kg/injection, schedule: Q01DX001 (ip), vehicle: saline) 1 of 6; under setting [4], 0 of 6; under setting [5], 0 of 6.

For `CC(=O)c1ccc2cc(O)ccc2c1`, the survivor count runs as follows: under setting [6], 3 of 6; under setting [7], 2 of 6; (dose: 400.0 mg/kg/injection, schedule: Q01DX009 (ip), vehicle: saline) 1 of 6.

With `CC(=O)NC(C)(C)CC(C)(C)C`, the survivor count (dose: 50.0 mg/kg/injection, schedule: Q01DX009 (ip), vehicle: Klucel (hydroxypropylcellulose) (HPC)) was 2 of 6; the survivor count under setting [8] is reported as 2 of 6; the survivor count (dose: 200.0 mg/kg/injection, schedule: Q01DX001 (ip), vehicle: saline with Tween-80) is given as 1 of 6; the survivor count under setting [9] was 0 of 6; the survivor count (dose: 400.0 mg/kg/injection, schedule: Q01DX001 (ip), vehicle: saline with Tween-80) is on record as 0 of 6; the survivor count under setting [10] is 0 of 6.

In the case of `NC(CC(=O)O)C(=O)OCc1ccccc1` (stereo unspecified), the survivor count (dose: 400.0 mg/kg/injection, schedule: Q01DX009 (ip), vehicle: Klucel (hydroxypropylcellulose) (HPC)) was 1 of 3.

Regarding `BrCc1cccc2ccccc12`, the survivor count by setting is: (dose: 150.0 mg/kg/injection, schedule: Q01DX009 (ip), vehicle: saline) 3 of 6; (dose: 200.0 mg/kg/injection, schedule: Q04DX003 (ip), vehicle: saline) 6 of 6; (dose: 225.0 mg/kg/injection, schedule: Q01DX009 (ip), vehicle: saline) 1 of 6; (dose: 335.0 mg/kg/injection, schedule: Q01DX009 (ip), vehicle: saline) 0 of 6; under setting [11], 0 of 6.

Turning to `O=C(CN1CCCCC1)Nc1ccc(S(=O)(=O)c2ccc([N+](=O)[O-])cc2)cc1`, the survivor count is, setting by setting: under setting [4], 1 of 6; under setting [5], 1 of 6.

On to `CC(=O)c1ccc(N2C(=O)C=CC2=O)cc1`, for which the survivor count under setting [8] is on record as 0 of 6.

Take `OC(CNc1ccc(Cl)cc1)CN1CCCC1` (stereo unspecified): the survivor count (dose: 150.0 mg/kg/injection, schedule: Q04DX003 (ip), vehicle: saline) was 0 of 6 and the survivor count (dose: 300.0 mg/kg/injection, schedule: Q04DX003 (ip), vehicle: saline) is recorded as 0 of 6.

On to `Nc1ccc(/C=C\C(=O)NCc2cccnc2)cc1`, for which the survivor count runs as follows: (dose: 200.0 mg/kg/injection, schedule: Q01DX009 (ip), vehicle: saline with Tween-80) 2 of 6; (dose: 400.0 mg/kg/injection, schedule: Q01DX009 (ip), vehicle: saline with Tween-80) 0 of 6.

Regarding `S=C(NNC(=S)Nc1ccc(Cl)cc1)NNc1ccccc1`, the survivor count (dose: 400.0 mg/kg/injection, schedule: Q04DX003 (ip), vehicle: acetone) is 2 of 6.

On to `N#C/C(=C\c1cc(Cl)cc(Cl)c1O)C(/C(C#N)=C/c1cc(Cl)cc(Cl)c1O)c1ccc2c(c1)OCO2` (stereo unspecified), for which the survivor count reads like this: under setting [1], 6 of 6; under setting [3], 5 of 6.

As for `CC1(C)CCC(N)CC1`, the survivor count under setting [5] was 0 of 6.

On to `CCCCSC1CCCC1`, for which the survivor count by setting is: under setting [12], 2 of 6; under setting [11], 1 of 6.

In the case of `CCN(CC)P(=O)(N1CC1(C)C)N1CC1(C)C` (stereo unspecified), the T/C is, setting by setting: (dose: 300.0 mg/kg/injection, schedule: Q01DX001 (ip), vehicle: carboxymethylcellulose (CMC)) 128 % of control; under setting [11], 134 % of control.

With `Cc1ccc2c(C)c3ccc4ccccc4c3c[n+]2c1`, the survivor count is reported as 3 of 6 (dose: 25.0 mg/kg/injection, schedule: Q01DX009 (ip), vehicle: saline with Tween-80); 3 of 6 (dose: 50.0 mg/kg/injection, schedule: Q01DX009 (ip), vehicle: saline with Tween-80); 4 of 6 (dose: 100.0 mg/kg/injection, schedule: Q01DX009 (ip), vehicle: saline with Tween-80); 3 of 6 under setting [8]; 3 of 6 under setting [9]; 6 of 6 under setting [10]. The survivor count (dose: 800.0 mg/kg/injection, schedule: Q04DX003 (ip), vehicle: Klucel (hydroxypropylcellulose) (HPC)) is given as 2 of 6.

For `COc1cc2c(cc1OC)C(Cc1ccc(N)cc1)N(C)CC2` (stereo unspecified), the survivor count by setting is: under setting [13], 1 of 4; (dose: 200.0 mg/kg/injection, schedule: Q01DX001 (ip), vehicle: saline) 0 of 4; under setting [11], 0 of 4.

`O=C1CCc2c1cc(O)c1ccc(S(=O)(=O)O)cc21`: where the note is “dose: 80.0 mg/kg/injection, schedule: Q01DX001 (ip), vehicle: saline”, the survivor count was 2 of 6.

`CCCCCCCCCCCCCC(=O)N(CCCC)CCCC`: under setting [14], the T/C was 96, 97, 97 % of control [2 of 3 alive] and the survivor count is listed as 0 of 6. Further, the T/C (dose: 200.0 mg/kg/injection, schedule: Q01DX009 (ip), vehicle: carboxymethylcellulose (CMC)) is on record as 93, 95, 96, 103 % of control.

For the compound `NC(=O)CCC(N)C(=O)O` (stereo unspecified), the survivor count is on record as 3 of 3 (dose: 12.5 mg/kg/injection, schedule: Q01DX009 (ip), vehicle: saline); 3 of 3 (dose: 25.0 mg/kg/injection, schedule: Q01DX009 (ip), vehicle: saline); 0 of 3 (dose: 50.0 mg/kg/injection, schedule: Q01DX009 (ip), vehicle: saline); 0 of 3 under setting [6]; 0 of 3 under setting [7].

Regarding `C[CH2][Pb]([CH2]C)([CH2]C)[O]C(C)=O`, the survivor count is, setting by setting: (dose: 5.0 mg/kg/injection, schedule: Q01DX009 (ip), vehicle: Klucel (hydroxypropylcellulose) (HPC)) 5 of 6; (dose: 10.0 mg/kg/injection, schedule: Q01DX009 (ip), vehicle: Klucel (hydroxypropylcellulose) (HPC)) 0 of 6; (dose: 20.0 mg/kg/injection, schedule: Q01DX001 (ip), vehicle: carboxymethylcellulose (CMC)) 0 of 4; (dose: 20.0 mg/kg/injection, schedule: Q04DX003 (ip), vehicle: Klucel (hydroxypropylcellulose) (HPC)) 0 of 6; (dose: 40.0 mg/kg/injection, schedule: Q01DX001 (ip), vehicle: carboxymethylcellulose (CMC)) 0 of 4; (dose: 50.0 mg/kg/injection, schedule: Q01DX001 (ip), vehicle: carboxymethylcellulose (CMC)) 0 of 4. For the same compound, the survivor count is 0 of 4 (dose: 80.0 mg/kg/injection, schedule: Q01DX001 (ip), vehicle: carboxymethylcellulose (CMC)); 0 of 4 (dose: 100.0 mg/kg/injection, schedule: Q01DX001 (ip), vehicle: carboxymethylcellulose (CMC)); 0 of 4 (dose: 200.0 mg/kg/injection, schedule: Q01DX001 (ip), vehicle: carboxymethylcellulose (CMC)); 0 of 4 (dose: 400.0 mg/kg/injection, schedule: Q01DX001 (ip), vehicle: carboxymethylcellulose (CMC)).

For `Cc1c(NC(=O)Nc2ccccc2F)c(=O)n(-c2ccccc2)n1C`, the survivor count runs as follows: under setting [13], 6 of 6; under setting [12], 6 of 6; (dose: 400.0 mg/kg/injection, schedule: Q01DX009 (ip), vehicle: acetone) 6 of 6.
